# Counter-ions that a name gives are not always drawn. Some of the results follow. Repeats in this data set agree poorly, so a single value says little.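 JEG3 cells stably carry tetracycline-induced wild-type human LRH-1, a heavily sumoylated nuclear receptor. APOC3 and MUC1 are SUMO-sensitive transcripts, raised by SUMO-less LRH-1 or UBC9 knockdown, measured by RT-qPCR against TBP and DMSO controls. A robust Z-score above +2 or below -2 marked a primary hit before toxicity and TBP filtering.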
# System: JEG3 expressing hLRH-1
# Assay: APOC3 transcript change (ddCt vs TBP and DMSO), Z-score over library; higher = higher APOC3 expression
# Details: 10 µM; time (hr): 24
row,SMILES,APOC3 transcript change (Z-score)
1,NS(=O)(=O)c1ccc(C(=O)O)cc1 [carzenide],0.141
2,CCCN(CCC)S(=O)(=O)c1ccc(C(=O)O)cc1 [probenecid],-0.685
3,CN(C(=O)C(Cl)Cl)c1ccc(OC(=O)c2ccco2)cc1 [diloxanide furoate],-0.373
4,C[C@H]1C[C@@H]2[C@H]([C@@H](O)C[C@@]3(C)[C@H]2CC[C@]3(O)C(=O)CO)[C@@]2(C)C=CC(=O)C=C12 [methylprednisolone],0.441
5,CCC(=O)NCC[C@@H]1CCc2ccc3c(c21)CCO3 [ramelteon],0.151
6,Cc1nc2n(c(=O)c1CCN1CCC(c3noc4cc(F)ccc34)CC1)CCCC2 [Risperidone],-1.24
7,CCc1oc2ccccc2c1C(=O)c1cc(Br)c(O)c(Br)c1 [benzbromarone],0.193
8,Clc1cccc(Cl)c1NC1=NCCN1 [Clonidine hydrochloride],1.24
9,CC(=O)Oc1cccc2c1C(=O)c1c(OC(C)=O)cc(C(=O)O)cc1C2=O [diacerin],-1.23
10,CC(C)COCC(CN(Cc1ccccc1)c1ccccc1)N1CCCC1 (stereo unspecified) [Bepridil hydrochloride],0.975
11,CN(C)CCOC(C)(c1ccccc1)c1ccccn1 (stereo unspecified) [doxylamine succinate],-0.34
12,CC1=C(C)C(=O)C(C(CCCCCC(=O)O)c2ccccc2)=C(C)C1=O (stereo unspecified) [seratrodast],-0.678
13,C[n+]1cc2c3c(ccc2c2ccc4cc5c(cc4c21)OCO5)OCO3 [Sanguinarine chloride],2.54
14,CN(C)CCCOc1nn(Cc2ccccc2)c2ccccc12 [benzydamine hydrochloride],0.231
15,CC(=O)Nc1ncc([N+](=O)[O-])s1 [nithiamide],0.487
16,NCC(O)CC(=O)O (stereo unspecified) [aminohydroxybutyric acid],-0.648
17,NNc1nncc2ccccc12 [hydralazine hydrochloride],-0.728
18,Cc1cc(=O)n(-c2ccccc2)n1C [antipyrine],-0.513
19,CCN(CC)CC#CCOC(=O)C(O)(c1ccccc1)C1CCCCC1 (stereo unspecified) [oxybutynin chloride],0.902
20,C[C@@H]1O[C@@H](OC[C@H]2OC(Oc3c(-c4ccc(O)c(O)c4)oc4cc(O)cc(O)c4c3=O)[C@H](O)[C@@H](O)[C@@H]2O)[C@H](O)[C@H](O)[C@H]1O (stereo partly specified) [rutin],-0.0889
21,C1CNCCN1 [piperazine],-3.1
22,O=C(O)CSCC(=O)NC1CCSC1=O (stereo unspecified) [erdosteine],-0.433
23,CC(C)c1ccc2oc3nc(N)c(C(=O)O)cc3c(=O)c2c1 [amlexanox],0.125
24,CCOC(N)=O [urethane],0.743
25,CC(C)C(=O)Nc1ccc([N+](=O)[O-])c(C(F)(F)F)c1 [flutamide],-0.0923
26,CC(CCc1ccc(O)cc1)NCC(O)c1ccc(O)cc1 (stereo unspecified) [ractopamine hydrochloride],0.269

row,SMILES,APOC3 transcript change (Z-score)
1,Cc1ccc(/C(=C\CN2CCCC2)c2ccccn2)cc1 [Triprolidine hydrochloride],0.256
2,COc1cc2nc(N3CCN(C(=O)c4ccco4)CC3)nc(N)c2cc1OC [prazosin hydrochloride],-0.365
3,Oc1ccc2ccccc2c1 [beta-naphthol],0.356
4,N[C@@H](CC(=O)N1CCn2c(nnc2C(F)(F)F)C1)Cc1cc(F)c(F)cc1F [sitagliptin monophosphate monohydrate],-0.702
5,CC(=O)SCC(Cc1ccccc1)C(=O)NCC(=O)OCc1ccccc1 (stereo unspecified) [racecadotril],0.285
6,OCCN(CCO)c1nc(N2CCCCC2)c2nc(N(CCO)CCO)nc(N3CCCCC3)c2n1 [Dipyridamole],0.472
7,C=C1c2c(Cl)ccc(O)c2C(O)=C2C(=O)[C@]3(O)C(O)=C(C(N)=O)C(=O)[C@@H](N(C)C)[C@@H]3[C@@H](O)[C@H]12 [meclocycline sulfosalicylate],-0.114
8,CC(=O)Nc1ccc(S(=O)(=O)Nc2onc(C)c2C)cc1 [sulfisoxazole acetyl],0.149
9,CCCCC(O)c1ccccc1 (stereo unspecified) [fenipentol],0.575
10,COc1cc2nc(N3CCN(C(=O)C4COc5ccccc5O4)CC3)nc(N)c2cc1OC (stereo unspecified) [doxazosin mesylate],0.239
11,Cc1nc2ccccn2c(=O)c1CCN1CCC(C(=O)c2ccc(F)cc2)CC1 [Pirenperone],-0.953
12,"Cc1cc(C(C)(C)C)c(O)c(C(C)(C)C)c1 [2,6-di-t-butyl-4-methylphenol]",-0.996
13,CO[C@H]1C[C@H](O[C@H]2[C@H](C)O[C@@H](O[C@@H]3/C(C)=C/C[C@@H]4C[C@@H](C[C@]5(C=C[C@H](C)[C@@H](C6CCCCC6)O5)O4)OC(=O)[C@@H]4C=C(C)[C@@H](O)[C@H]5OC/C(=C\C=C\[C@@H]3C)[C@]54O)C[C@@H]2OC)O[C@@H](C)[C@@H]1O [doramectin],0.00636
14,CCCC[C@@H](CC)COC(=O)c1ccccc1O [octisalate],0.0423
15,O=C(O)CCCCC1CCSS1 (stereo unspecified) [thioctic acid],-0.324
16,Nc1ccc(S(=O)(=O)Nc2ccnn2-c2ccccc2)cc1 [Sulfaphenazole],-1.02
17,CC(=O)/N=c1\sc(S(N)(=O)=O)nn1C [methazolamide],-1.7
18,O=C(O)CCNC(=O)c1ccc(N=Nc2ccc(O)c(C(=O)O)c2)cc1 [balsalazide disodium],-0.607
19,CC[N+](C)(C)c1cccc(O)c1 [edrophonium chloride],-0.0757
20,CC(=O)[C@@]1(O)CC[C@H]2[C@@H]3C=C(Cl)C4=CC(=O)[C@@H]5C[C@@H]5[C@]4(C)[C@H]3CC[C@@]21C [cyproterone],0.207
21,CCCOc1cc(N)ccc1C(=O)OCCN(CC)CC [propoxycaine hydrochloride],-0.0018
22,NCCc1c[nH]cn1 [Histamine dihydrochloride],0.483
23,CN1CCN(C(c2ccccc2)c2ccccc2)CC1 [cyclizine],0.192
24,OC1(c2ccc(Cl)c(C(F)(F)F)c2)CCN(CCCC(c2ccc(F)cc2)c2ccc(F)cc2)CC1 [penfluridol],0.177
25,CC(O)CN(CCN(CC(C)O)CC(C)O)CC(C)O (stereo unspecified) [editol],0.616

# An excerpt from further up:
row,SMILES,APOC3 transcript change (Z-score)
23,CN1CCN(C(c2ccccc2)c2ccccc2)CC1 [cyclizine],0.192
24,OC1(c2ccc(Cl)c(C(F)(F)F)c2)CCN(CCCC(c2ccc(F)cc2)c2ccc(F)cc2)CC1 [penfluridol],0.177
25,CC(O)CN(CCN(CC(C)O)CC(C)O)CC(C)O (stereo unspecified) [editol],0.616

# — the supplement of paper PMC4749390
